Assay results published in paper PMC7521923.
Results are given in words; binding and its absence hold for the method and conditions named. Binding seen in cells or lysates may run through a third protein. Some results given as binding are weak or reduced against the parent protein; the word gives no strength.

By UniProt entry, the sequences of proteins in these tests, tags left out. Residues count along the entry.
UniProt Q9ULV1, residues 37-537: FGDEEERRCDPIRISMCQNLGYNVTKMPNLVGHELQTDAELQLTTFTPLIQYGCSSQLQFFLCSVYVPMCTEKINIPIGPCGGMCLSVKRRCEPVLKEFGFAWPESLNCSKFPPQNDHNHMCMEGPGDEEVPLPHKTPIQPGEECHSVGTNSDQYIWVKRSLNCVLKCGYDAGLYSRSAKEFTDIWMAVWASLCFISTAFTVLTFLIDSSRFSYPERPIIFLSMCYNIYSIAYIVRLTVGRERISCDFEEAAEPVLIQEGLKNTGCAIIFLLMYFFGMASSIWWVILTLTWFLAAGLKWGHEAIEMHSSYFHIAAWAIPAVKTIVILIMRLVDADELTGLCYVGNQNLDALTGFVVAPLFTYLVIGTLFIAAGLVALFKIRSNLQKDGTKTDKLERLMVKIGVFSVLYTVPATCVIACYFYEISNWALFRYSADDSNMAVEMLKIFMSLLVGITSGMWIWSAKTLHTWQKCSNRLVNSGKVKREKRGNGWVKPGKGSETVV
UniProt Q9H461, residues 28-694: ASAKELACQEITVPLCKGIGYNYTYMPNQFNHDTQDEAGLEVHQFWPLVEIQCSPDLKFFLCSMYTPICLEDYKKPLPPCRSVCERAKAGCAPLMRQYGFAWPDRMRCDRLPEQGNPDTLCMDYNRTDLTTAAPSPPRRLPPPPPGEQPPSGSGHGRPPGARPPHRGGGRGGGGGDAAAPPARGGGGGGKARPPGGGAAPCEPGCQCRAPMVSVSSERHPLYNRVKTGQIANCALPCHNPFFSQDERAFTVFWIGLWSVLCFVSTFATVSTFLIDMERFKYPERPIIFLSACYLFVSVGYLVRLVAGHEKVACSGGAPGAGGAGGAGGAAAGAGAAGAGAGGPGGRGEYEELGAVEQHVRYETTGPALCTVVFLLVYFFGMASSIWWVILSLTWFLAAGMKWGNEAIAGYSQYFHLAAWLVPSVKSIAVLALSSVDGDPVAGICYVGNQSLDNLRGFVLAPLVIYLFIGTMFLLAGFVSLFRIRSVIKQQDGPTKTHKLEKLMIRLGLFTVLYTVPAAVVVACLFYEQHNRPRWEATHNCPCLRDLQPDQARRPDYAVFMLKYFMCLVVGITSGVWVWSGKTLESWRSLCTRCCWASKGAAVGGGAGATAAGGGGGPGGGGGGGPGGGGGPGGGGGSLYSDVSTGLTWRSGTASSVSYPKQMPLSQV
UniProt Q99835, residues 28-787: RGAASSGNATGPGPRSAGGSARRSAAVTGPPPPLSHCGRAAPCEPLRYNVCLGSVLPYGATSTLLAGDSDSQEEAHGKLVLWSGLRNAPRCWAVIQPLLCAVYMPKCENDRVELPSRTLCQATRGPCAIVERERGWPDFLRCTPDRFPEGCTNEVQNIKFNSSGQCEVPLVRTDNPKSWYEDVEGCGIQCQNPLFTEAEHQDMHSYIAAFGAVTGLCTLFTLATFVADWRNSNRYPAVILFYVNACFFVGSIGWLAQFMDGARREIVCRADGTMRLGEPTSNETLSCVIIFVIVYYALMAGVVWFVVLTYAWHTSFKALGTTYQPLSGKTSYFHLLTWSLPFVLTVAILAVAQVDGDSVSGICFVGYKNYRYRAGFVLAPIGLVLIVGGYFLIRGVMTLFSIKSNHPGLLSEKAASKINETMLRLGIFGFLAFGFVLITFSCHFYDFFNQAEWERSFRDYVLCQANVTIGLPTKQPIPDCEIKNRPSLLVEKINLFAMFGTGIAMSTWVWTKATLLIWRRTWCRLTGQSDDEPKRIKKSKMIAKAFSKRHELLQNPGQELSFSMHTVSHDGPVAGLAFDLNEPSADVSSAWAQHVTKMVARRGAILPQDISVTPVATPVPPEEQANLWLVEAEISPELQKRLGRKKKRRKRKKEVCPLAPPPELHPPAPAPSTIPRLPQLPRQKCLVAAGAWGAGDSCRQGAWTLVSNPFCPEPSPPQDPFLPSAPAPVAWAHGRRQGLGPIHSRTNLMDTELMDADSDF
UniProt Q13467, residues 27-585: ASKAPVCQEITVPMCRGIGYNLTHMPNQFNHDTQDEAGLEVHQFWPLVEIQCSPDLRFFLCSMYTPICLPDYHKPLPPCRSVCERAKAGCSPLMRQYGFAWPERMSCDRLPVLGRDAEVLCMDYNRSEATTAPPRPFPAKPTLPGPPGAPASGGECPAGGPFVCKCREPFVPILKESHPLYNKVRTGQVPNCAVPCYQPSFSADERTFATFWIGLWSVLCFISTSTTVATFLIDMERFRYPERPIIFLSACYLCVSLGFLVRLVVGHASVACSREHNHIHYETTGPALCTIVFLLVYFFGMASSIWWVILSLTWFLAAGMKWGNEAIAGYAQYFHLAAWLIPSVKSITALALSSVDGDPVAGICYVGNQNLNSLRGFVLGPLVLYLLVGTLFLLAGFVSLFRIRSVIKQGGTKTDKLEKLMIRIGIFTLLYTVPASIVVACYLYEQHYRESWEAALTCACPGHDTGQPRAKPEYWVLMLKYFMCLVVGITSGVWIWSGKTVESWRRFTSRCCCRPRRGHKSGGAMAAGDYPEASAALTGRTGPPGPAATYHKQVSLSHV

T1: FZD6 (human) (UniProt O60353)
T1 sequence: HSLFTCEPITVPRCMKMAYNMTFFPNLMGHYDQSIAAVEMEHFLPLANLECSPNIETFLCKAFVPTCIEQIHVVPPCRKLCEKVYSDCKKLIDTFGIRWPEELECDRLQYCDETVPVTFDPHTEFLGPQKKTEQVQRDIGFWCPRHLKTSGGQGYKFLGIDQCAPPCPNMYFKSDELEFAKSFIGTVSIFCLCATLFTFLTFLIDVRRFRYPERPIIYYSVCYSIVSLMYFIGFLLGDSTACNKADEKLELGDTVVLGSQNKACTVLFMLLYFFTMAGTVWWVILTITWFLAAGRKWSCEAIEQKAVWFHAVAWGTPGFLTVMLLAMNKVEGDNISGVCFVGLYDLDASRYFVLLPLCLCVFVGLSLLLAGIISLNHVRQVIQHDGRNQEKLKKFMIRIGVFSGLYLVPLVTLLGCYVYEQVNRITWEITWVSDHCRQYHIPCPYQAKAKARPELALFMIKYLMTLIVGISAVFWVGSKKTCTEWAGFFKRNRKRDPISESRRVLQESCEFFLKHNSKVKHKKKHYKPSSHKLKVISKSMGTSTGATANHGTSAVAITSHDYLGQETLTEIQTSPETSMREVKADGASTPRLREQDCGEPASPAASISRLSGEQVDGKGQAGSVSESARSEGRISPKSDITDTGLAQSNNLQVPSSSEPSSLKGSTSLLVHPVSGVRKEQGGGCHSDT

T2: USP8 (UniProt P40818)
T2 sequence: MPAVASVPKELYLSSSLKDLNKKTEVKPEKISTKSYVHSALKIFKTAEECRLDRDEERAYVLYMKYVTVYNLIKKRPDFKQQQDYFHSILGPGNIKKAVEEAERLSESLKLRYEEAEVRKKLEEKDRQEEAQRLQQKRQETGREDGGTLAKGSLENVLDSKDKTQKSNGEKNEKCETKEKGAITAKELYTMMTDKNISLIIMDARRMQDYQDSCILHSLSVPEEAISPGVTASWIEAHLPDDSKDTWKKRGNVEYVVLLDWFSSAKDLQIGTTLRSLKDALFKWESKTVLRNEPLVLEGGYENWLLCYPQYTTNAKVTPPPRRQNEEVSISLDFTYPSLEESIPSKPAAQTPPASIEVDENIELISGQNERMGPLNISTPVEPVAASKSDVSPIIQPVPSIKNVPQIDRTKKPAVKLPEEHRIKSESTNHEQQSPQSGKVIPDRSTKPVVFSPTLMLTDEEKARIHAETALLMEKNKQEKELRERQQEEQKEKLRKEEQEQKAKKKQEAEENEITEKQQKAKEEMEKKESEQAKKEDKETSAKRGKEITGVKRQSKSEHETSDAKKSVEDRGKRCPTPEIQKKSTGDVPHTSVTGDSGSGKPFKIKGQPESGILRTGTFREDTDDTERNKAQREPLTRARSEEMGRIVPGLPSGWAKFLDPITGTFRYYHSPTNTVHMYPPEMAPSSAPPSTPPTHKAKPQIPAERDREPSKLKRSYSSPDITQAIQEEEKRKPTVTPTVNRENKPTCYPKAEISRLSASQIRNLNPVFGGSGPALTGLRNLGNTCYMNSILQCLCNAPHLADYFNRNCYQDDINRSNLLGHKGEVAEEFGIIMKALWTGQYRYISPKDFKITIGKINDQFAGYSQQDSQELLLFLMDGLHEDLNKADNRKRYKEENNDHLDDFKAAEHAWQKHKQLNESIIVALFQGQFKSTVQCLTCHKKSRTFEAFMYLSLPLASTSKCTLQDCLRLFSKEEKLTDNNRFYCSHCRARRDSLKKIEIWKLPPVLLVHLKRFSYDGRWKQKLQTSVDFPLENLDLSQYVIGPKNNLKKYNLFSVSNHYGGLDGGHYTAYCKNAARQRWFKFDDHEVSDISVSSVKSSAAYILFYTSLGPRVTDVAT

T3: FZD10 (human) (UniProt Q9ULW2)
T3 sequence: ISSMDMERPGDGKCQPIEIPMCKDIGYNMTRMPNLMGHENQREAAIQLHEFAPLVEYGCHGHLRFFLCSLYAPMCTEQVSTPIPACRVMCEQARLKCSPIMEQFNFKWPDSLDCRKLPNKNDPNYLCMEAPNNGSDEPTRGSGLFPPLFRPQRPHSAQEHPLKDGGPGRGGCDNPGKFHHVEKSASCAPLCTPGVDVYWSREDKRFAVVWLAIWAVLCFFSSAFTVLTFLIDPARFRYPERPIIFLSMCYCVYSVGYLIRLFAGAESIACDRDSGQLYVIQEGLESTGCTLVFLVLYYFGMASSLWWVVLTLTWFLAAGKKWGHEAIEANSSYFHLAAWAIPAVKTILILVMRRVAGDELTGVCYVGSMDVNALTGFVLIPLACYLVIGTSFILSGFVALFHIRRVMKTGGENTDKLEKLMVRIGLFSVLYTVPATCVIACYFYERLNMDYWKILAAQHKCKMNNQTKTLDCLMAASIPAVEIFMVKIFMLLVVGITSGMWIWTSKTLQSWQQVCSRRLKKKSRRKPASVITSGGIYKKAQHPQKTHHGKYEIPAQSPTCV

T4: FZD3 (human) (UniProt Q9NPG1)
T4 sequence: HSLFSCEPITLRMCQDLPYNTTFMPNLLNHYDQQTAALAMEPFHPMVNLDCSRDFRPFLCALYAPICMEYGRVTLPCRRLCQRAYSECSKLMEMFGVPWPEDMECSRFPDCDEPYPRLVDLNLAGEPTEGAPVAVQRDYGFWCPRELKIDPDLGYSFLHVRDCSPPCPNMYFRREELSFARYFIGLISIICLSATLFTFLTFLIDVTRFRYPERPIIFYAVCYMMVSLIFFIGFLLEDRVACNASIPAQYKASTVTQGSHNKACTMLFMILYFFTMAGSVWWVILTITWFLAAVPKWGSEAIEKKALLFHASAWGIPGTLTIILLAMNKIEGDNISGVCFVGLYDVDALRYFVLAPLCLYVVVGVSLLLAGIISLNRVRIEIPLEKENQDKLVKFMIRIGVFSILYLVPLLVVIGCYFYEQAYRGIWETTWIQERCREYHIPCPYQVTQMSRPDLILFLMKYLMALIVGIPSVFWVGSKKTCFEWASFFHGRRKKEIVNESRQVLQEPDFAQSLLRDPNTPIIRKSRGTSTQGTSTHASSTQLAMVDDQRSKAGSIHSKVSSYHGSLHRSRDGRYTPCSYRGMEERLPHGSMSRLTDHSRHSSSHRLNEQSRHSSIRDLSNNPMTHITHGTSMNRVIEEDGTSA


What was measured:
Assay in all cases: co-IP; both partners expressed in transfected HEK293T cells (FZD5-USP8 also in T79KO cells and with TMEM79 overexpressed; USP8-TMEM79 in FZD null cells); NP40 lysis buffer (50 mM Tris pH 7.5, 150 mM NaCl, 1 mM EDTA, 1% NP40, 10% glycerol, 10 mM NaF); antibody-conjugated agarose beads (anti-c-Myc, anti-HA, anti-Flag M2 or anti-V5) at 4°C overnight; five washes; immunoblot
FZD6 (human) = biological target: T1, FZD6 (human)
FZD4 (human) = FZD4 (human) (UniProt Q9ULV1)
USP8 = biological target: T2, USP8
FZD10 (human) = biological target: T3, FZD10 (human)
FZD8 (human) = FZD8 (human) (UniProt Q9H461)
FZD3 (human) = biological target: T4, FZD3 (human)
Smoothened (SMO) = Smoothened (SMO) (UniProt Q99835)
[1] = biological target: FZD5 (transfected) (human) (UniProt Q13467)

| Binder | binding (FZD6 (human)) | binding (FZD4 (human)) | binding (USP8) | binding (FZD10 (human)) | binding (FZD8 (human)) | binding (FZD3 (human)) | binding (Smoothened (SMO)) | binding [1] |
| --- | --- | --- | --- | --- | --- | --- | --- | --- |
| TMEM79 (FL, full length) (protein, UniProt Q9D709 1-391) MTEPETLALLDMKEPETPEKSPPQALVLQSEEEGGTESPGTESLRVGSSVGSPIVREGPEDGPDSTISEAATLPWGTDPHPSAPLPDPPGWRDIEPEPLESEAPTKSEEPFKEDANLLPEKTVRAFVPIDLQCIERKPQEERILHRDAGPGELRNFLPARLSHPEPPERKWAEAVVRPPGRSCGGCGSCGGREALRAVASVVAALIFFPCLLYGAYAFLPFDAPRLPTMSSRLVYTLRCGVFATFPIVLGLLVYGLSLLCFSALRPFGEPRREVEIHRQYVAQSVQLFILYFFNLAVLSTYLPQDTLKLLPLLTGLFAISRLIYWLTFAVGRSFRGFGYGLTFLPLLAMLVWNLYYMFVVEPERMLTASESRLDYPDHARSVSDYRPRSWG | binds | binds | binds | binds | binds | binds | no binding | – |
| USP8 (enzyme, UniProt P40818 1-1118) MPAVASVPKELYLSSSLKDLNKKTEVKPEKISTKSYVHSALKIFKTAEECRLDRDEERAYVLYMKYVTVYNLIKKRPDFKQQQDYFHSILGPGNIKKAVEEAERLSESLKLRYEEAEVRKKLEEKDRQEEAQRLQQKRQETGREDGGTLAKGSLENVLDSKDKTQKSNGEKNEKCETKEKGAITAKELYTMMTDKNISLIIMDARRMQDYQDSCILHSLSVPEEAISPGVTASWIEAHLPDDSKDTWKKRGNVEYVVLLDWFSSAKDLQIGTTLRSLKDALFKWESKTVLRNEPLVLEGGYENWLLCYPQYTTNAKVTPPPRRQNEEVSISLDFTYPSLEESIPSKPAAQTPPASIEVDENIELISGQNERMGPLNISTPVEPVAASKSDVSPIIQPVPSIKNVPQIDRTKKPAVKLPEEHRIKSESTNHEQQSPQSGKVIPDRSTKPVVFSPTLMLTDEEKARIHAETALLMEKNKQEKELRERQQEEQKEKLRKEEQEQKAKKKQEAEENEITEKQQKAKEEMEKKESEQAKKEDKETSAKRGKEITGVKRQSKSEHETSDAKKSVEDRGKRCPTPEIQKKSTGDVPHTSVTGDSGSGKPFKIKGQPESGILRTGTFREDTDDTERNKAQREPLTRARSEEMGRIVPGLPSGWAKFLDPITGTFRYYHSPTNTVHMYPPEMAPSSAPPSTPPTHKAKPQIPAERDREPSKLKRSYSSPDITQAIQEEEKRKPTVTPTVNRENKPTCYPKAEISRLSASQIRNLNPVFGGSGPALTGLRNLGNTCYMNSILQCLCNAPHLADYFNRNCYQDDINRSNLLGHKGEVAEEFGIIMKALWTGQYRYISPKDFKITIGKINDQFAGYSQQDSQELLLFLMDGLHEDLNKADNRKRYKEENNDHLDDFKAAEHAWQKHKQLNESIIVALFQGQFKSTVQCLTCHKKSRTFEAFMYLSLPLASTSKCTLQDCLRLFSKEEKLTDNNRFYCSHCRARRDSLKKIEIWKLPPVLLVHLKRFSYDGRWKQKLQTSVDFPLENLDLSQYVIGPKNNLKKYNLFSVSNHYGGLDGGHYTAYCKNAARQRWFKFDDHEVSDISVSSVKSSAAYILFYTSLGPRVTDVAT | – | – | – | – | – | – | – | binds |
